{
  "source": "patent US20230173084A1",
  "about": "“PEPTIDE-BASED SYNTHETIC CHLORIDE ION TRANSPORTERS” (Tavanta Therapeutics Hungary Incorporated, priority 2019, published 2023)",
  "key": {"[1]": {"system": "isolated mouse pancreatic ductal fragments (siGLO / siCFTR)", "test": "intracellular Cl- level in CFTR knockdown pancreatic ductal fragments", "assay_type": "cell-based", "settings": "Cl- free extracellular media"}, "[2]": {"system": "CFTR knockout mice", "test": "severity of lung fibrosis in Cftr knockout mice, nebulized treatment", "assay_type": "in vivo, mouse", "settings": "400 µL of 10 µM nebulized daily for 4 weeks", "description": "To assess the effect of in vivo administrated Formula (II) on lung histology parameters, this Example use Cftr^tm1UncTg(FABPCFTR)1Jaw/J mice (Jackson Laboratory, Stock No: 002364). FABP-hCFTR-CFTR bitransgenic mice harbor the FABP-hCFTR transgene [rat fatty acid binding protein 2, intestinal promoter directing expression of a human cystic fibrosis transmembrane conductance regulator (ATP-binding cassette sub-family C, member 7) gene] and a targeted knock-out mutation of the cystic fibrosis transmembrane conductance regulator homolog gene (Cftr). The mice used in this study were 8-12 weeks old and weighted 20-25 grams in the case of wild type (WT) animals and 15-17 grams in the case of CFTR knockout animals, the gender ratio was 1:1 for all groups. Experiments were carried out with adherence to the NIH guidelines and the EU directive 2010/63/EU for the protection of animals used for scientific purposes. The study was authorized by the National Scientific Ethical Committee on Animal Experimentation under license number XXI./1540/2020. Formula (II) was dissolved in physiological saline in a concentration of 10 µM. […] Sections were digitalized and fibrosis was scored as follows. […] Positive pixels were counted as fibrosis, negative pixels were counted as tissue. […]"}, "[3]": {"system": "pancreatic organoids", "test": "intracellular Cl- level (MQAE) in 3D pancreatic organoids", "assay_type": "cell-based", "experimental": "To assess the biological activity of CPPs changes of intracellular Cl^— level was measured by loading HEK-293 cells with 5 µM N-(Ethoxycarbonylmethyl)-6-Methoxyquinolinium Bromide (MQAE; ThermoFischer; Catalog number: E3101) for 30 min in the presence of 0.05% Pluronic F-127. Cells were bathed with Cl^— free external solution and treated with different concentrations of CPPs at 37° C. at the perfusion rate of 2-3 ml/min. Region of interests (ROIs) were determined by the xcellence softver (Olympus) and changes of Cl^— were determined by exciting the cells with an MT20 light source equipped with a 340/11 nm excitation filter. Excitation and emission wavelengths were separated by a 400 nm beam splitter and the emitted light was captured by a Hamamatsu ORCA- ER CCD camera. One measurement per second was obtained. During further analysis the fluorescence signals were normalized to the initial fluorescence intensity (F1/F0) and expressed as normalized MQAE fluorescence (FIG. 2). […] N: 4-5 independent experiments/each tested condition.\nTo test the Cl^— transporting capability of CPPs in primary 3D cells, organoids were loaded with MQAE as above described and bathed in standard HEPES buffered solution (FIG. 4.). […] N: 4-5 independent experiments/each tested condition."}, "[4]": {"settings": "siCFTR (CFTR knockdown) ductal fragments"}, "[5]": {"settings": "siGLO (transfection control) ductal fragments"}},
  "note": "Entries after “also recorded” stand apart in the source; their conditions may differ. For at least one compound, name, drawing or mass did not settle the structure.",
  "data": [
    {"compound": "CC[C@H](C)[C@H](NC(=O)[C@H](CCCCN)NC(=O)[C@@H](NC(=O)[C@H](CCC(N)=O)NC(=O)[C@H](CCCNC(=N)N)NC(=O)c1ccc(N=C=S)cc1)[C@@H](C)CC)C(=O)N[C@@H](Cc1c[nH]c2ccccc12)C(=O)N[C@@H](Cc1ccccc1)C(=O)N[C@@H](CCC(N)=O)C(=O)N[C@@H](CC(N)=O)C(=O)N[C@@H](CCCNC(=N)N)C(=O)N[C@@H](CCCNC(=N)N)C(=O)N[C@@H](CCSC)C(=O)N[C@@H](CCCCN)C(=O)N[C@@H](Cc1c[nH]c2ccccc12)C(=O)N[C@@H](CCCCN)C(=O)N[C@@H](CCCCN)C(N)=O", "note": "[Formula (III)]", "values": [
      {"measurement": "Cl- transport / efflux", "setting": "[1]; [4]", "result": "able to transport Cl^—"},
      {"measurement": "Cl- transport / efflux", "setting": "[1]; [5]", "result": "able to transport Cl^—"}
    ]},
    {"compound": "CC[C@H](C)[C@H](NC(=O)[C@H](CCCCN)NC(=O)[C@@H](NC(=O)[C@H](CCC(N)=O)NC(=O)[C@H](CCCNC(=N)N)NC(=O)CCCCCNC(=S)Nc1cc(C(F)(F)F)cc(C(F)(F)F)c1)[C@@H](C)CC)C(=O)N[C@@H](Cc1c[nH]c2ccccc12)C(=O)N[C@@H](Cc1ccccc1)C(=O)N[C@@H](CCC(N)=O)C(=O)N[C@@H](CC(N)=O)C(=O)N[C@@H](CCCNC(=N)N)C(=O)N[C@@H](CCCNC(=N)N)C(=O)N[C@@H](CCSC)C(=O)N[C@@H](CCCCN)C(=O)N[C@@H](Cc1c[nH]c2ccccc12)C(=O)N[C@@H](CCCCN)C(=O)N[C@@H](CCCCN)C(N)=O", "note": "[Formula (II)]", "values": [
      {"measurement": "lung fibrosis", "setting": "[2]; control group 26.7±2.4%", "result": "22.4±1.6", "unit": "%"},
      {"measurement": "lung parenchyma density", "setting": "[2]; control group 35.2±5.2%", "result": "26.4±2.2", "unit": "%"},
      {"measurement": "dependence of the Cl- efflux on CFTR activity", "setting": "[3]", "result": "not affected by the activity of CFTR"},
      {"measurement": "effect on intracellular Cl- level", "setting": "[3]; absence of extracellular Cl-", "result": "induced intracellular Cl^— efflux; also recorded: the drop of intracellular Cl^— was remarkably higher; also recorded: comparable with the effect of CFTR"},
      {"measurement": "effect on intracellular Cl- level", "setting": "[3]; presence of extracellular Cl- (140 mM Cl- HEPES-buffered solution)", "result": "induced intracellular Cl^— efflux; also recorded: decreased the intracellular Cl^— level"},
      {"measurement": "Cl- transport / efflux", "setting": "[1]; [4]", "result": "induced Cl^— efflux"},
      {"measurement": "Cl- transport / efflux", "setting": "[1]; siCFTR (CFTR knockdown) ductal fragments, listed as CLTR2", "result": "able to transport Cl^—"},
      {"measurement": "Cl- transport / efflux", "setting": "[1]; [5]", "result": "induced Cl^— efflux"},
      {"measurement": "Cl- transport / efflux", "setting": "[1]; siGLO (transfection control) ductal fragments, listed as CLTR2", "result": "able to transport Cl^—"}
    ]}
  ]
}
